Measured values as given in the supplement of paper PMC10849652.
The list shows a part of the results.

Protein sequences, listed by entry. Tags and fused reporters are not part of them. Lines headed by an entry give the natural chain unless they say otherwise; changes in a name come on top.
UniProt Q96DA6: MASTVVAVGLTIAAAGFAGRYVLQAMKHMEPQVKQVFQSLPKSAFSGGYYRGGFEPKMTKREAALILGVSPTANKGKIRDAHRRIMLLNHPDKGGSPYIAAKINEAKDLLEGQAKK
UniProt O43143: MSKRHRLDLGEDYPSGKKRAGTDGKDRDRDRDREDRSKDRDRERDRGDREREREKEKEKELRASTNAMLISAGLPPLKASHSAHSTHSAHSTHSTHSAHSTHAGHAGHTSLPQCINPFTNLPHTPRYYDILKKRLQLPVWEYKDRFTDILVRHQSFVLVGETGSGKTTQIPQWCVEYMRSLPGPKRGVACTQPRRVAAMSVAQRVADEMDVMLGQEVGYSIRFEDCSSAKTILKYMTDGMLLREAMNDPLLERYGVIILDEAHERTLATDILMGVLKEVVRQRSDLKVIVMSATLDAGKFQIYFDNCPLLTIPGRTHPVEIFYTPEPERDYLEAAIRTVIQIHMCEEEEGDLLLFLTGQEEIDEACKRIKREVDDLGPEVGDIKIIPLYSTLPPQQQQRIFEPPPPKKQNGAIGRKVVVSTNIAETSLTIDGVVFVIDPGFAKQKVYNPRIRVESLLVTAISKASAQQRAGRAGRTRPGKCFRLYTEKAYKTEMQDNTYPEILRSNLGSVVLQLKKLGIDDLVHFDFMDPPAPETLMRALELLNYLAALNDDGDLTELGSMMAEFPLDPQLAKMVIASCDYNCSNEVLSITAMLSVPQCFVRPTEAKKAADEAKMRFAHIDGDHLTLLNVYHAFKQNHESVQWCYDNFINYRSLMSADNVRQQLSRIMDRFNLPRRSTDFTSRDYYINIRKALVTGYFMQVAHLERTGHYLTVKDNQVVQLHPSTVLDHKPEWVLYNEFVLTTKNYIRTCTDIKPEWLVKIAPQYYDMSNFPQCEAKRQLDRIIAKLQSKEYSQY
UniProt Q8TDJ6, whole entry, looked up: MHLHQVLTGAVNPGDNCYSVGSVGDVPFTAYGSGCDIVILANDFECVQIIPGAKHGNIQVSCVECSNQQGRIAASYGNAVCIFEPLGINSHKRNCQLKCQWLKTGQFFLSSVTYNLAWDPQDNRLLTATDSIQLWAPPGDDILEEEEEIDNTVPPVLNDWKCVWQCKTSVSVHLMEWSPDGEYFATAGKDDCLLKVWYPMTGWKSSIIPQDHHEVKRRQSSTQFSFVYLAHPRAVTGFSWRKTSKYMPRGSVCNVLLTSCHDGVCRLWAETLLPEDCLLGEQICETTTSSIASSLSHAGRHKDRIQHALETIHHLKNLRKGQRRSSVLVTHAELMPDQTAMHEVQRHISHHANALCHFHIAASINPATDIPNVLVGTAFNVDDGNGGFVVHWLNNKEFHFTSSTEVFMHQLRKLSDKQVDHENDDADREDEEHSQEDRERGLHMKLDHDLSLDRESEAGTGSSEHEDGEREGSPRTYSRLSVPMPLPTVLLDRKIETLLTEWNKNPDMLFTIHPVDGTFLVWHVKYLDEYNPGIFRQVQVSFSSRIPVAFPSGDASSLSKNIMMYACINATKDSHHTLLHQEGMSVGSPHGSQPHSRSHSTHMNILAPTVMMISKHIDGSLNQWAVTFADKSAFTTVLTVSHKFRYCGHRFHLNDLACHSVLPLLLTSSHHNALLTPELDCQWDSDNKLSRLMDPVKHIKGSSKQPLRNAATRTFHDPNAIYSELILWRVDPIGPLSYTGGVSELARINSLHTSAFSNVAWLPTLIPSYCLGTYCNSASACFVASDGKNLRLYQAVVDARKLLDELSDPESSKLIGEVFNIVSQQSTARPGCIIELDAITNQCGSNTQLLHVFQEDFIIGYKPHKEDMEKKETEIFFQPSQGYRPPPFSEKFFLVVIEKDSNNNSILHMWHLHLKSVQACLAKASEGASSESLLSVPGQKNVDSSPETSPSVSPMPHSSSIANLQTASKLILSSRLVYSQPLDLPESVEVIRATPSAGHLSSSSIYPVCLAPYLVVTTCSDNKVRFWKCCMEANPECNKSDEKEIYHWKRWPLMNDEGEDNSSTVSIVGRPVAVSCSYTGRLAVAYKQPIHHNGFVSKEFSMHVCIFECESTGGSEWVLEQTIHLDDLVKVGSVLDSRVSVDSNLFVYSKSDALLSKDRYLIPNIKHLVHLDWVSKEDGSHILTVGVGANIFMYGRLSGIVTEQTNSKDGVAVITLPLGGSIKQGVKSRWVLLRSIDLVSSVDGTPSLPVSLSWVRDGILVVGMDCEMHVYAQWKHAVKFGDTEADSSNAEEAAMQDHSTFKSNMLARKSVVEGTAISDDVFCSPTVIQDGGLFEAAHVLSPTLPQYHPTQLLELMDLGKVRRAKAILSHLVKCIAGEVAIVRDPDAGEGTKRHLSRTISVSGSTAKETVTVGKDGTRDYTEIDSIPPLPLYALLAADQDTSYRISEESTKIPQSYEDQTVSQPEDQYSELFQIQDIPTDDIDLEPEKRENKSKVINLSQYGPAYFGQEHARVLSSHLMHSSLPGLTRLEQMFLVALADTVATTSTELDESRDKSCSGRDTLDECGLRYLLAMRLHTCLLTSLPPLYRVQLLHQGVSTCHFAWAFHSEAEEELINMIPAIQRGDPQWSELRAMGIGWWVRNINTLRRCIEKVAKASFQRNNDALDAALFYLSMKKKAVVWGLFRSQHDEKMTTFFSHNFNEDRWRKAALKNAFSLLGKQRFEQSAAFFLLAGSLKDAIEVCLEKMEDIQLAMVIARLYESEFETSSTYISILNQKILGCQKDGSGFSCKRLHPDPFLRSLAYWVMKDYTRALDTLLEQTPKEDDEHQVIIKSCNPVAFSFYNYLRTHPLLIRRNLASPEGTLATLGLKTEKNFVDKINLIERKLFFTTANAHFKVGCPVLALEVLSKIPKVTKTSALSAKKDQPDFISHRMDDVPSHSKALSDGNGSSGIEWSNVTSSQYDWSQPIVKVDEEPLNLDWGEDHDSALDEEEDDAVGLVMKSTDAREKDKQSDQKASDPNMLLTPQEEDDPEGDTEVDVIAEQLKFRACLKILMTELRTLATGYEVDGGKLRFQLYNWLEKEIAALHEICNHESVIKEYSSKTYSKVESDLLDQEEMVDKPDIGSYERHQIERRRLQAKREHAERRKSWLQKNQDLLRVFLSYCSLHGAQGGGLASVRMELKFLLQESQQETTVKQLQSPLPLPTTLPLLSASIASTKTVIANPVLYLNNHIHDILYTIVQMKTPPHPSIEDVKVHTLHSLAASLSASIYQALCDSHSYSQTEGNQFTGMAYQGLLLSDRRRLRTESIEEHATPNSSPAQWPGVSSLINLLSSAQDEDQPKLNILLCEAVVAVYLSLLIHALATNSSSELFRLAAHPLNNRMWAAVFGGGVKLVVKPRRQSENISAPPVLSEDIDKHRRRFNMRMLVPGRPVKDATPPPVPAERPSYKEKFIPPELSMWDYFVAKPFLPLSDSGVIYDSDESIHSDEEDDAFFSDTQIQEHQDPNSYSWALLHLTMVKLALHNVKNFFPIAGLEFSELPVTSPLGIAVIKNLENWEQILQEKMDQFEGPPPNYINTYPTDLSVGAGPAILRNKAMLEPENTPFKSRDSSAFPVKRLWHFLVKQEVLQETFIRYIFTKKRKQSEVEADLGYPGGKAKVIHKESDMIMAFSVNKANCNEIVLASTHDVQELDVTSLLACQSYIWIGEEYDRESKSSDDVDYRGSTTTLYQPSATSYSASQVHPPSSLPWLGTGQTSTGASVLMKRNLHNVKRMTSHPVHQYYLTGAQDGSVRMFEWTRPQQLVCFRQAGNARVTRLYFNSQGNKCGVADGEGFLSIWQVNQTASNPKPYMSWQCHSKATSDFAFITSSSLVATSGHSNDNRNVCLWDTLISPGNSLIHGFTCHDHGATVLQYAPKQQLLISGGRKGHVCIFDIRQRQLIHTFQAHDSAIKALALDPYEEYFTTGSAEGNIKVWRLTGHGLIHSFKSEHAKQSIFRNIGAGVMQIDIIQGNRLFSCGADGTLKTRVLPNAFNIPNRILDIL
UniProt O75061: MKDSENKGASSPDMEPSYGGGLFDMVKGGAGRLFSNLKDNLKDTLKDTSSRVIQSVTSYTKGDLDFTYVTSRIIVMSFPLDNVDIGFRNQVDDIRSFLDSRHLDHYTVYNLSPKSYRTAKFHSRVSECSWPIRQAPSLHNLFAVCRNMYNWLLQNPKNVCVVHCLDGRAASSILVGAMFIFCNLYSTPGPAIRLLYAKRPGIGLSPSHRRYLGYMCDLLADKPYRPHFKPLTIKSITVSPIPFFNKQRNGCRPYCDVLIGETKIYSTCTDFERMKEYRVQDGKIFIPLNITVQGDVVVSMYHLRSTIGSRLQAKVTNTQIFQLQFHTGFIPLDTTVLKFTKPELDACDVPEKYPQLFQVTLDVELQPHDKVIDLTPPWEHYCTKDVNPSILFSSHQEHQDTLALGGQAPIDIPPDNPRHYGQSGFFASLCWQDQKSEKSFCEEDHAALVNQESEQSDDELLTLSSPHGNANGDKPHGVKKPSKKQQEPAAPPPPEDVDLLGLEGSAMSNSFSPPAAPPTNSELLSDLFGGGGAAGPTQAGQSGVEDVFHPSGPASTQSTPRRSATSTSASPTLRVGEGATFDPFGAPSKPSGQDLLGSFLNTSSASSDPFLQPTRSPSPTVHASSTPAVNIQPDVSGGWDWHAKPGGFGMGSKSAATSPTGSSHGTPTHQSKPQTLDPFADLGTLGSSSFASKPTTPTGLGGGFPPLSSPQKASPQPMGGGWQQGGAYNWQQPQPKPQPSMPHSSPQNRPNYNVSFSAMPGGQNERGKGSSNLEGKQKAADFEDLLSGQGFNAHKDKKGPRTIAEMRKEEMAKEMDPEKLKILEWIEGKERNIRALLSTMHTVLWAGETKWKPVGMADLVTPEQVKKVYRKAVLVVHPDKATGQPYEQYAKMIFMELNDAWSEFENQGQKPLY
UniProt Q9H3H5: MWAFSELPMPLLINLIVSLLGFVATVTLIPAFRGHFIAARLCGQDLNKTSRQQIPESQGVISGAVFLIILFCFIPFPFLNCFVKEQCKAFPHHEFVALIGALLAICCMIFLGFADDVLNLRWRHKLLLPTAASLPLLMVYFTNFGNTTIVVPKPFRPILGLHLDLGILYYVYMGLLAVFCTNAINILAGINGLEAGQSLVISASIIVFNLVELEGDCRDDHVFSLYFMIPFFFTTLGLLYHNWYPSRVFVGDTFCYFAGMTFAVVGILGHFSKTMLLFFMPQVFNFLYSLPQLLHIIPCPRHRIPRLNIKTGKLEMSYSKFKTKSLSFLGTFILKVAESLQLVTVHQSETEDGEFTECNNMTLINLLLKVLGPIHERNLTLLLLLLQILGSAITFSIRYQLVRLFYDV
UniProt Q9Y2G8: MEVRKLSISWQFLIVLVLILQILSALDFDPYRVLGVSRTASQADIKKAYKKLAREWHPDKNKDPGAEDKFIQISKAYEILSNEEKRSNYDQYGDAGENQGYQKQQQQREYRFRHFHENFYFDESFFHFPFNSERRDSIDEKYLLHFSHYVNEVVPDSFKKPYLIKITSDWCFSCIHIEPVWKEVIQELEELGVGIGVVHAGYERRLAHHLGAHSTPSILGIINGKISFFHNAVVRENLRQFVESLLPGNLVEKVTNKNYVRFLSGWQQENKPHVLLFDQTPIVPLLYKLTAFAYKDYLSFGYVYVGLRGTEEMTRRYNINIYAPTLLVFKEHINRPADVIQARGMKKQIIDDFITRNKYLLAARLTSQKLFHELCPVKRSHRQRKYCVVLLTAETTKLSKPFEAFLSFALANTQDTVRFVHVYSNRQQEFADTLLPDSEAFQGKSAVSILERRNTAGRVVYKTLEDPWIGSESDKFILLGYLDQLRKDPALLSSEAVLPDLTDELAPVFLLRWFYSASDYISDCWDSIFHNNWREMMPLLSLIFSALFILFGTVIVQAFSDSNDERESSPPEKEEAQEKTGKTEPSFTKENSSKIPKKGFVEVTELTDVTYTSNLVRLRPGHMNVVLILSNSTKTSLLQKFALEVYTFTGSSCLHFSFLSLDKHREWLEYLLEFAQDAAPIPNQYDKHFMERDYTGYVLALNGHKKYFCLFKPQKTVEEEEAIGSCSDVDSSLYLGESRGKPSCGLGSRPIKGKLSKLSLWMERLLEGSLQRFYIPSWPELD
UniProt Q8NDZ4: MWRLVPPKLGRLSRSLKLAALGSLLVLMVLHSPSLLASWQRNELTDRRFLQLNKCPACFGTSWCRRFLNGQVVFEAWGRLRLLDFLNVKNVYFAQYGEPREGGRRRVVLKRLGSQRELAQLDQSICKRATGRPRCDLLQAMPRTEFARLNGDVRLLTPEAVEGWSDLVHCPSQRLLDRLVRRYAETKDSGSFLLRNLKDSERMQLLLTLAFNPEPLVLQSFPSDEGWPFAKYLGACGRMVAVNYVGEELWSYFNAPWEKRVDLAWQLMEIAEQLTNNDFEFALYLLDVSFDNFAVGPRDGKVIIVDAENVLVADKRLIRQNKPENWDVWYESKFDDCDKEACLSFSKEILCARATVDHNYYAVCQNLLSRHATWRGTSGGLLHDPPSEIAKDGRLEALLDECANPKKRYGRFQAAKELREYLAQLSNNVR

Tests used:
Experiment in all cases: log2 fold change, soluble protein after heating vs DMSO (PISA); higher = thermal stabilisation; K562 lysate, 10 uM; active = over 0.2 and 3.5 SD of the protein, either way, in both replicates (recomputed)
ibrutinib = compound: C=CC(=O)N1CCC[C@@H](n2nc(-c3ccc(Oc4ccccc4)cc3)c3c(N)ncnc32)C1 [ibrutinib]
Procedure, shortened: (§1)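 To prepare the extract, K562 pellets were dounce-homogenised in PBS pH 7.4 with 1 mM MgCl2, giving crude material at 1 mg/mL protein. This was treated with 10 μM compound for 30 min, then heated in aliquots for 3 min over 48°C-58°C before pooling and addition of NP-40 to 0.5% at 4°C. Centrifugation at 21,000xg for 90 min left soluble protein in the supernatant, which TMTpro 16plex LC-MS/MS quantified with equalised channel sums. Results are log-two fold changes in thermal stability compared with solvent controls, from duplicates.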

[1] = compound: CC(=O)c1cnc2ccc(-c3cc(Cl)c(O)c(Cl)c3)nc2c1N[C@H]1CC[C@H](CN(C)C)CC1
Procedure, shortened: as §1

ralimetinib = compound: CC(C)(C)Cn1c(N)nc2ccc(-c3[nH]c(C(C)(C)C)nc3-c3ccc(F)cc3)nc21 [ralimetinib]
Procedure, shortened: as §1

[2] = compound: CC(C)(O)CC(=O)NCCn1ccc2ncnc(Nc3ccc(Oc4cccc(C(F)(F)F)c4)c(Cl)c3)c21
Procedure, shortened: as §1

[3] = compound: CC(C)C1=C2N=C(C=C(N2N=C1)NCC3=CC=CC=C3)NCCCCCCN
Procedure, shortened: as §1

[4] = compound: CC1=C(C(CC(=O)N1)C2=CC=C(C=C2)C(F)(F)F)C(=O)NC3=C(C=C4C(=C3)C=NN4)F
Procedure, shortened: as §1

[5] = compound: CC1=C(C2=C(C=C1)C(=O)C3=CC=CC=C3N2CCCN)C
Procedure, shortened: as §1

[6] = compound: CC1=C(C=C(C=C1)NC(=O)C2=CC(=CC=C2)C(C)(C)C#N)NC3=CC4=C(C=C3)N=CN(C4=O)C
Procedure, shortened: as §1

[7] = compound: CC1=C(C=C(C=C1)NC(=O)C2=CC(=CC=C2)N(C)C)NC(=O)C3=CC=C(C=C3)O
Procedure, shortened: as §1

[8] = compound: CC1=CC=C(C=C1)SC2=C3C=C(SC3=CN=C2)C(=O)N
Procedure, shortened: as §1

Measured: log2 fold change

DNAJC13 (UniProt O75165)
inactive: ibrutinib -0.012 | [1] -0.01 | ralimetinib -0.003 | [2] -0.034 | [3] -0.063 | [4] 0.01 | [5] -0.02 | [6] 0.013 | [7] -0.002 | [8] -0.001

DMTN (UniProt Q08495)
inactive: ibrutinib 0.048 | [1] 0.029 | ralimetinib 0.001 | [2] 0.015 | [3] 0.03 | [4] -0.004 | [5] -0.01 | [6] 0.001 | [7] 0.013 | [8] -0.001

DHRS1 (UniProt Q96LJ7)
inactive: ibrutinib -0.057 | [1] -0.037 | ralimetinib 0.01 | [2] 0.089 | [3] 0.058 | [4] 0.024 | [5] -0.104 | [6] 0.001 | [7] -0.035 | [8] -0.001

DNAJB1 (UniProt P25685)
inactive: ibrutinib -0.029 | [1] 0.006 | ralimetinib 0.009 | [2] -0.009 | [3] 0.007 | [4] 0.003 | [5] 0.041 | [6] 0.027 | [7] 0.017 | [8] -0.016

DHX57 (UniProt Q6P158)
inactive: ibrutinib 0.025 | [1] -0.014 | ralimetinib 0.027 | [2] -0.072 | [3] 0.061 | [4] 0.026 | [5] -0.011 | [6] 0.017 | [7] -0.04 | [8] 0.036

DNAJC3 (UniProt Q13217)
inactive: ibrutinib 0.009 | [1] -0.004 | ralimetinib -0.022 | [2] 0.007 | [3] -0.021 | [4] 0.024 | [5] 0.006 | [6] -0.011 | [7] -0.054 | [8] -0.018

DNAJC19 (UniProt Q96DA6)
inactive: ibrutinib 0.001 | [1] -0.013 | ralimetinib -0.025 | [2] 0.016 | [3] 0.001 | [4] 0.016 | [5] 0.014 | [6] 0.023 | [7] -0.016 | [8] 0.001

DHX15 (UniProt O43143)
inactive: ibrutinib 0.003 | [1] -0.011 | ralimetinib 0.025 | [2] -0.027 | [3] -0.016 | [4] 0.001 | [5] -0.005 | [6] -0.014 | [7] -0.007 | [8] 0.014

DHX9 (UniProt Q08211)
inactive: ibrutinib -0.001 | [1] -0.017 | ralimetinib 0.018 | [2] 0.006 | [3] 0.003 | [4] -0.004 | [5] -0.033 | [6] 0.009 | [7] 0.032 | [8] 0.017

DNPEP (UniProt Q9ULA0)
inactive: ibrutinib -0.008 | [1] 0.004 | ralimetinib -0.013 | [2] -0.022 | [3] 0.015 | [4] 0 | [5] -0.022 | [6] -0.02 | [7] -0.014 | [8] -0.011

DMXL2 isoform 3 (UniProt Q8TDJ6)
inactive: ibrutinib -0.033 | [1] -0.012 | ralimetinib 0.006 | [2] -0.002 | [3] -0.039 | [4] 0.053 | [5] -0.013 | [6] -0.01 | [7] 0.048 | [8] 0.044

Quoted at random: 2 entries already listed.
DHX9 (UniProt Q08211)
inactive: ibrutinib -0.001 | [1] -0.017 | ralimetinib 0.018 | [2] 0.006 | [3] 0.003 | [4] -0.004 | [5] -0.033 | [6] 0.009 | [7] 0.032 | [8] 0.017

DMXL2 isoform 3 (UniProt Q8TDJ6)
inactive: ibrutinib -0.033 | [1] -0.012 | ralimetinib 0.006 | [2] -0.002 | [3] -0.039 | [4] 0.053 | [5] -0.013 | [6] -0.01 | [7] 0.048 | [8] 0.044

Additional results

DHX37 (UniProt Q8IY37)
inactive: ibrutinib -0.056 | [1] 0.003 | ralimetinib -0.053 | [2] -0.051 | [3] -0.031 | [4] -0.028 | [5] -0.151 | [6] -0.059 | [7] 0.046 | [8] 0.037

DHX34 (UniProt Q14147)
inactive: ibrutinib 0.08 | ralimetinib -0.054 | [2] -0.081 | [3] 0.015 | [4] 0.048 | [5] 0.058 | [6] 0.028 | [7] 0.022

DMXL1 (UniProt Q9Y485)
inactive: ibrutinib -0.02 | [1] -0.025 | ralimetinib 0.021 | [2] -0.012 | [3] 0.016 | [4] -0.001 | [5] -0.024 | [6] 0 | [7] 0.064 | [8] -0.026

DLC1 (UniProt Q96QB1)
inactive: ibrutinib 0 | ralimetinib 0.052 | [2] -0.01 | [6] 0.069 | [7] -0.031

DNAJC6 isoform 2 (UniProt O75061)
inactive: ibrutinib 0.031 | [1] -0.033 | ralimetinib 0.015 | [2] -0.016 | [3] 0.009 | [4] -0.024 | [5] 0.011 | [6] 0.044 | [7] -0.048 | [8] -0.011

DNM1L isoform 2 (UniProt O00429)
inactive: ibrutinib -0.104 | [1] 0.031 | ralimetinib -0.07 | [2] -0.024 | [3] -0.065 | [4] 0.083 | [5] -0.098 | [6] -0.029 | [7] 0.075 | [8] -0.064

DPAGT1 (UniProt Q9H3H5)
inactive: ibrutinib -0.057 | [1] -0.004 | ralimetinib 0.147 | [2] -0.027 | [3] -0.075 | [4] 0 | [6] -0.034 | [7] -0.035 | [8] -0.043

DNHD1 (UniProt Q96M86)
inactive: ibrutinib -0.001 | [1] -0.068 | ralimetinib -0.188 | [2] -0.072 | [3] -0.056 | [6] 0.073 | [7] 0.062 | [8] -0.234

DOCK11, A0A0J9YW64
inactive: ibrutinib 0.036 | [4] 0.144

DIAPH1 (UniProt H9KV28)
inactive: ibrutinib -0.063 | [1] 0.024 | ralimetinib -0.022 | [2] -0.106 | [3] -0.083 | [4] 0.032 | [6] 0.004 | [7] 0.009 | [8] -0.03

DHRS4L1 (UniProt P0CG22)
inactive: ibrutinib 0.022 | [1] -0.021 | ralimetinib 0.023 | [2] 0.075 | [3] -0.035 | [5] -0.204 | [6] -0.002 | [7] 0.045 | [8] -0.065

DNAJC16 (UniProt Q9Y2G8)
inactive: ibrutinib -0.155 | ralimetinib -0.031 | [2] 0.251 | [4] 0.062 | [5] 0.258 | [6] 0.024 | [7] 0.329

DIPK2A (UniProt Q8NDZ4)
inactive: ibrutinib 0.061 | [1] 0.035 | ralimetinib 0.182 | [2] 0.055 | [3] -0.071 | [5] -0.009 | [6] -0.002 | [7] -0.027 | [8] 0.069

DGKA (UniProt P23743)
inactive: ibrutinib 0.159 | [1] 0.01 | ralimetinib -0.042 | [2] 0.383 | [4] 0.036 | [5] -0.233 | [7] -0.605 | [8] 0.049

DMD isoform 14 (UniProt P11532)
inactive: ibrutinib 0.25 | ralimetinib 0.078 | [2] 0.079 | [5] 0.121 | [6] 0.034 | [7] 0.09

DNAJC10 (UniProt Q8IXB1)
inactive: ibrutinib 0.059 | [1] 0.012 | ralimetinib 0.001 | [2] 0.001 | [3] -0.017 | [4] 0.044 | [5] 0.002 | [6] -0.007 | [7] 0.007 | [8] -0.003

DHTKD1 (UniProt Q96HY7)
inactive: ibrutinib 0.016 | [1] 0.083 | ralimetinib -0.018 | [2] -0.039 | [3] 0.056 | [4] -0.147 | [6] -0.042 | [7] 0.038 | [8] -0.036

DLG5 (UniProt Q8TDM6)
inactive: ibrutinib -0.056 | [5] -0.128

DNMT1 (UniProt P26358)
inactive: ibrutinib -0.146 | ralimetinib -0.09 | [2] -0.05 | [4] -0.085 | [6] 0.119 | [7] 0.143

DOP1A (UniProt Q5JWR5)
inactive: ibrutinib 0.047 | [4] 0.036 | [5] -0.038 | [6] -0.016

DIMT1 (UniProt Q9UNQ2)
inactive: ibrutinib 0.005 | [1] 0.002 | ralimetinib 0.008 | [2] -0.035 | [3] -0.017 | [4] -0.018 | [5] -0.057 | [6] -0.032 | [7] 0.004 | [8] -0.001

DNAJB2 (UniProt P25686)
inactive: ibrutinib 0.137 | [3] -0.032 | [4] 0.258 | [5] 0.022 | [6] 0.078
